In patent publication US20170022288A9, “PANCREATIC CANCER ASSOCIATED ANTIGEN, ANTIBODY THERETO, AND DIAGNOSTIC AND TREATMENT METHODS” (priority 2003, published 2017):
At least one compound was matched to its structure with a doubt left.

System: BMRPA1 cells
Test: Anchorage independent colony formation on agar
Format: cell-based, rat
Conditions: BMRPA1.NNK cells on agar
Description: Aliquots of 4 ml of 0.5% agar-medium mixture (agar was autoclaved in 64 mL H2O, cooled in a water bath to 50° C., and added to 15 mL 5× cRPMI, 19 mL FBS and 1 mL P/S) were poured into 25 cm^2 TCFs and allowed to harden overnight at 4° C. Prior to plating the cells, the flasks were placed in the COT-Air incubator for up to 5 h at 37° C. to facilitate equilibration of pH and temperature. Cells were collected by Trypsin-EDTA, 0.1 mL, of cell suspension (40000/mL cells in cRPMI) was dispersed carefully over the agar surface of each flask and the cultures were returned to the 37° C. incubator with […]-5% CO2. After 24 h, the agar-coated TCFs were inverted to allow drainage of excess medium. The cultures were examined microscopically after 9 d and 14 d for growth of colonies using a Zeiss inverted microscope.
The ability of the cloned BMRPA.1NNK and untreated BMRPA1 cells to grow on agar was examined by dispersing cells at low density onto soft agar (see Example 1).

Q: `CN(CCCC(=O)c1cccnc1)N=O` [NNK, 4-(methyl-nitrosamino)-1-(3-pyridyl)-1-butanone] was tested. Which “fraction of seeded cells forming colonies larger than 50 cells” value did it give?
A: about 1 in 4
